Source: the supplement of paper PMC9744312
Counter-ions that a name gives are not always drawn. The list shows a part of the results. Single values of this set are uncertain.

tested on: Peyronie's disease tunica albuginea primary fibroblasts; assay: cell viability (DRAQ5 nuclear stain) relative to TGF-beta1-only control; higher = more viable cells; conditions: 10 µM; TGF-beta1 10 ng/mL; 72 h

Compound	cell viability
CC(C)(OCc1nn(Cc2ccccc2)c2ccccc12)C(=O)O [Bindarit]	90.1%
C/C(=C\c1csc(C)n1)[C@@H]1C[C@@H]2O[C@]2(C)CCC[C@H](C)[C@H](O)[C@@H](C)C(=O)C(C)(C)[C@@H](O)CC(=O)N1	68.7%
C#CCN[C@@H]1CCc2ccccc21 [Rasagiline Mesylate]	94.4%
CCOc1nc2cccc(C(=O)OCc3oc(=O)oc3C)c2n1Cc1ccc(-c2ccccc2-c2noc(=O)[nH]2)cc1 [Azilsartan Medoxomil]	88.7%
CC(C)C(=O)Oc1ccc(CO)cc1[C@H](CCN(C(C)C)C(C)C)c1ccccc1 [Fesoterodine Fumarate]	100%
O=C(O)C(=O)O.[NH-][C@@H]1CCCC[C@H]1[NH-].[Pt+2] [Oxaliplatin]	67.9%
CCc1cc2c(cc1N1CCC(N3CCOCC3)CC1)C(C)(C)c1[nH]c3cc(C#N)ccc3c1C2=O [Alectinib hydrochloride]	97.8%
CCOC(=O)O[C@]1(C(=O)OCCl)CC[C@H]2[C@@H]3CCC4=CC(=O)C=C[C@]4(C)[C@H]3[C@@H](O)C[C@@]21C [Loteprednol etabonate]	82.8%
Clc1ccc(C(Cn2ccnc2)OCc2ccsc2Cl)c(Cl)c1 (configuration not stated) [Tioconazole]	86.5%
NC(=O)CCC(N)C(=O)O (racemic) [DL-Glutamine]	91.9%
C[C@](N)(Cc1ccc(O)c(O)c1)C(=O)O [Methyldopa]	92.5%
Cc1c(C(=O)NN2CCCCC2)nn(-c2ccc(Cl)cc2Cl)c1-c1ccc(Cl)cc1 [Rimonabant]	57.1%
C[C@H]1c2cccc(O)c2C(=O)C2=C(O)[C@]3(O)C(=O)C(C(N)=O)=C(O)[C@@H](N(C)C)[C@@H]3[C@@H](O)[C@@H]21 [Doxycycline Hyclate]	100%
C[C@H]1c2cccc(O)c2C(=O)C2=C(O)[C@]3(O)C(=O)C(C(N)=O)=C(O)[C@@H](N(C)C)[C@@H]3[C@@H](O)[C@@H]21 [Doxycycline]	84.8%
COc1cc2c(cc1OC)CC(=O)N(CCCN(C)C[C@H]1Cc3cc(OC)c(OC)cc31)CC2 [Ivabradine HCl]	93.6%
O=C(O)c1cc(/N=N/c2ccc(O)c(C(=O)O)c2)ccc1O [Olsalazine Sodium]	91.9%
CC(=O)NCCCS(=O)(=O)O [Acamprosate Calcium]	83.3%
CNC(=O)c1cc(Oc2ccc(NC(=O)Nc3ccc(Cl)c(C(F)(F)F)c3)c(F)c2)ccn1 [Regorafenib (BAY 73-4506)]	47.8%
CNC(=O)c1cc(Oc2ccc(NC(=O)Nc3ccc(Cl)c(C(F)(F)F)c3)c(F)c2)ccn1 [Regorafenib Monohydrate]	60.7%
CC(C)(C)NCC(O)COc1cccc2c1CCC(=O)N2 (configuration not stated) [Carteolol HCl]	85.8%
CC(C)C[C@H](NC(=O)[C@@H](NC(=O)c1cccc(-c2ccccc2)n1)[C@@H](C)O)B(O)O	22.2%
CCC/N=C1\S/C(=C\c2ccc(OC[C@H](O)CO)c(Cl)c2)C(=O)N1c1ccccc1C [Ponesimod]	92.2%
Nc1nc2ccc(OC(F)(F)F)cc2s1 [Riluzole]	87.9%

Compound	cell viability
CN1CCC(=C2c3ccccc3CCc3cccnc32)CC1 [Azatadine dimaleate]	97.5%
COc1ccc2c(c1)c(CC(=O)O)c(C)n2C(=O)c1ccc(Cl)cc1 [Indometacin Sodium]	80.6%
COc1ccc2c(c1)c(CC(=O)O)c(C)n2C(=O)c1ccc(Cl)cc1 [Indomethacin]	85.9%
C(=C\c1ccccc1)/CN1CCN(C(c2ccccc2)c2ccccc2)CC1 [Cinnarizine]	87.2%
C[C@@H]1CCO[C@H]2Cn3cc(C(=O)NCc4ccc(F)cc4F)c(=O)c(O)c3C(=O)N12	90.3%
CO[C@H]1/C=C/O[C@@]2(C)Oc3c(C)c(O)c4c(O)c(cc(O)c4c3C2=O)NC(=O)/C(C)=C\C=C\[C@H](C)[C@H](O)[C@@H](C)[C@@H](O)[C@@H](C)[C@H](OC(C)=O)[C@@H]1C [Rifamycin sodium salt]	99%
O=C(C1CCCCC1)N1CC(=O)N2CCc3ccccc3C2C1 (configuration not stated) [Praziquantel]	99%
O=C([O-])c1ccccc1.[Na+] [Sodium benzoate]	95.1%
C[C@]1(O)C[C@@H](c2nc(-c3ccc4ccc(-c5ccccc5)nc4c3)c3c(N)nccn32)C1 [Linsitinib (OSI-906)]	84.9%
C=CCNC(N)=S [Allylthiourea]	76%
CN(C)CCOC(C)(c1ccccc1)c1ccccn1 (configuration not stated) [Doxylamine Succinate]	79.1%
COc1cc2nccc(Oc3ccc(NC(=O)Nc4cc(C)on4)c(Cl)c3)c2cc1OC [Tivozanib (AV-951)]	69.2%
CC(C)(C#N)c1cc(Cn2cncn2)cc(C(C)(C)C#N)c1 [Anastrozole]	75.5%
Oc1c(I)cc(Cl)c2cccnc12 [Clioquinol]	84.8%
C[C@@H](O)[C@H]1C(=O)N2C(C(=O)O)=C(S[C@@H]3CN[C@H](CNS(N)(=O)=O)C3)[C@H](C)[C@H]12 [Doripenem Hydrate]	75.3%
C[C@@H](O)[C@H]1C(=O)N2C(C(=O)O)=C(S[C@@H]3CN[C@H](CNS(N)(=O)=O)C3)[C@H](C)[C@H]12 [Doripenem]	98.5%
Nc1ccn([C@H]2CC[C@@H](CO)O2)c(=O)n1 [Zalcitabine]	98.7%
CC(S)C(=O)NCC(=O)O (configuration not stated) [Tiopronin]	92.5%
CN1CCN(CCCN2c3ccccc3Sc3ccc(C(F)(F)F)cc32)CC1 [Trifluoperazine 2HCl]	74.7%
CNC[C@H](O)c1ccc(O)c(O)c1 [Epinephrine HCl]	97.6%
CNC[C@H](O)c1ccc(O)c(O)c1 [Epinephrine bitartrate]	104%
COC[C@H]1C[C@@H](c2nc(-c3ccc4c(c3)COc3cc5c(ccc6nc([C@@H]7CC[C@H](C)N7C(=O)[C@@H](NC(=O)OC)C(C)C)[nH]c65)cc3-4)c[nH]2)N(C(=O)[C@H](NC(=O)OC)c2ccccc2)C1 [Velpatasvir]	85.8%
OC(CNCC(O)C1CCc2cc(F)ccc2O1)C1CCc2cc(F)ccc2O1 (configuration not stated) [Nebivolol HCl]	54.6%

Part of the list above in a different format:
COc1cc2nccc(Oc3ccc(NC(=O)Nc4cc(C)on4)c(Cl)c3)c2cc1OC [Tivozanib (AV-951)]
  cell viability: 69.2%
CC(C)(C#N)c1cc(Cn2cncn2)cc(C(C)(C)C#N)c1 [Anastrozole]
  cell viability: 75.5%
Oc1c(I)cc(Cl)c2cccnc12 [Clioquinol]
  cell viability: 84.8%

Later entries

Compound	cell viability
CC[C@H](C)[C@H](N)C1=N[C@H](C(=O)N[C@@H](CC(C)C)C(=O)N[C@H](CCC(=O)O)C(=O)N[C@H](C(=O)N[C@H]2CCCCNC(=O)[C@H](CC(N)=O)NC(=O)[C@@H](CC(=O)O)NC(=O)[C@H](Cc3cnc[nH]3)NC(=O)[C@@H](Cc3ccccc3)NC(=O)[C@H]([C@@H](C)CC)NC(=O)[C@@H](CCCN)NC2=O)[C@@H](C)CC)CS1 [Bacitracin]	97.4%
NC(=O)c1cccc2cn(-c3ccc([C@@H]4CCCNC4)cc3)nc12 [Niraparib (MK-4827) tosylate]	87.6%
NC(=O)c1cccc2cn(-c3ccc([C@@H]4CCCNC4)cc3)nc12 [Niraparib (MK-4827)]	77.5%
CC(=O)NS(=O)(=O)c1ccc(NC(=O)c2ccccc2C(=O)O)cc1 [Phthalylsulfacetamide]	92.2%
Cc1cc(/C=C/C#N)cc(C)c1Nc1ccnc(Nc2ccc(C#N)cc2)n1 [Rilpivirine]	78.9%
Oc1c(Cl)cc(Cl)c(Cl)c1Cc1c(O)c(Cl)cc(Cl)c1Cl [Hexachlorophene]	41.4%
CCOc1cc2ncc(C#N)c(Nc3ccc(F)c(Cl)c3)c2cc1NC(=O)/C=C/CN(C)C [Pelitinib (EKB-569)]	57.4%
COc1ccc(/C=C/C(=O)Nc2ccccc2C(=O)O)cc1OC [Tranilast]	69.4%
CCN(CC)CCNC(=O)c1c(C)[nH]c(/C=C2\C(=O)Nc3ccc(F)cc32)c1C [Sunitinib Malate]	31.7%
CCN(CC)CCNC(=O)c1c(C)[nH]c(/C=C2\C(=O)Nc3ccc(F)cc32)c1C [Sunitinib]	77.1%
Oc1ccc(/C=C/c2cc(O)cc(O)c2)cc1 [Resveratrol]	91.3%
CN1[C@@H]2CC[C@H]1C[C@@H](OC(=O)c1c[nH]c3ccccc13)C2 [Tropisetron HCl]	82.5%
CN1[C@@H]2CC[C@H]1C[C@@H](OC(=O)c1c[nH]c3ccccc13)C2 [Tropisetron]	80.4%
Cc1cccc(C)c1OCC(C)N (configuration not stated) [Mexiletine HCl]	79.9%
COc1ccccc1OCC(O)CO (configuration not stated) [Guaifenesin]	94.9%
CC[C@]1(O)C[C@H]2CN(CCc3c([nH]c4ccccc34)[C@@](C(=O)OC)(c3cc4c(cc3OC)N(C=O)[C@H]3[C@@](O)(C(=O)OC)[C@H](OC(C)=O)[C@]5(CC)C=CCN6CC[C@]43[C@@H]65)C2)C1 [Vincristine sulfate]	80.3%
Nc1nc(CC(=O)Nc2ccc(CCNC[C@H](O)c3ccccc3)cc2)cs1 [Mirabegron]	91.3%
NC[C@@H]1O[C@H](O[C@H]2[C@@H](O)[C@H](O[C@@H]3[C@@H](O)[C@H](N)C[C@H](N)[C@H]3O[C@H]3O[C@H](CO)[C@@H](O)[C@H](O)[C@H]3N)O[C@@H]2CO)[C@H](N)[C@@H](O)[C@@H]1O [Paromomycin Sulfate]	91.9%
Cc1cc(=O)[nH]c(=S)[nH]1 [Methylthiouracil]	97.9%
C[C@H]1O[C@@H](O[C@H]2[C@@H](O)C[C@H](O[C@H]3[C@@H](O)C[C@H](O[C@H]4CC[C@@]5(C)[C@H](CC[C@@H]6[C@@H]5C[C@@H](O)[C@]5(C)[C@@H](C7=CC(=O)OC7)CC[C@]65O)C4)O[C@@H]3C)O[C@@H]2C)C[C@H](O)[C@@H]1O [Digoxin]	24.3%
C[C@H](CCC(=O)O)[C@H]1CC[C@H]2[C@@H]3[C@H](O)C[C@@H]4C[C@H](O)CC[C@]4(C)[C@H]3C[C@H](O)[C@]12C [Cholic acid]	91.9%
